In the odorant receptor screen of Mainland et al. (2015):
“And” between values parts separate entries of the source, which are not always exact repeats. Equal entries are not always repeated. The list shows a part of the results. Single wells; the ratio to wells without odorant was worked out here, and repeats agree poorly.

Chains of the proteins cited; added tags and fusions are not shown. A line that says so, or that is headed by a name, gives the form on record, which may keep a tag or linker.
pseudo, as listed by the source: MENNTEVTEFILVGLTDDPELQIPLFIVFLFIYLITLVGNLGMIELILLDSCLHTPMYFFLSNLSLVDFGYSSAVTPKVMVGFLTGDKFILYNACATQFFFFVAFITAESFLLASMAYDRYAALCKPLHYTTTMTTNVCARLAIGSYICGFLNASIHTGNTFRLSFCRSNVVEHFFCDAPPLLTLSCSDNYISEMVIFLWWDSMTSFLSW

How the values were obtained:
Test in all cases: odorant receptor activation (CRE luciferase / Renilla) (fold of no-odor wells); higher = more activation
Details in all cases: 100 µM
[1] = tested on: OR9K2 clone 1389
[2] = tested on: OR9Q1 A2V clone 1713
[3] = tested on: OR9Q2 C179R clone 1310
[4] = tested on: OR9Q2 clone 1177
[5] = tested on: OR9Q2 clone 1501
[6] = tested on: pseudo clone 1035
[7] = tested on: pseudo clone 1218
[8] = tested on: pseudo clone 1380
[9] = tested on: pseudo clone 1384
[10] = tested on: pseudo clone 1417

CCC(C)=O [2-butanone]
odorant receptor activation [1]: 1.56
odorant receptor activation [2]: 0.736
odorant receptor activation [3]: 0.798
odorant receptor activation [4]: 0.76
odorant receptor activation [5]: 1.15
odorant receptor activation [6]: 2.74
odorant receptor activation [7]: 0.758
odorant receptor activation [8]: 0.939
odorant receptor activation [9]: 0.998
odorant receptor activation [10]: 0.719

CCCCOC(C)=O [butyl acetate]
odorant receptor activation [1]: 0.197
odorant receptor activation [2]: 0.714
odorant receptor activation [3]: 0.945
odorant receptor activation [4]: 1.05
odorant receptor activation [5]: 1.28
odorant receptor activation [6]: 1.09
odorant receptor activation [7]: 1.13
odorant receptor activation [8]: 0.284
odorant receptor activation [9]: 0.172
odorant receptor activation [10]: 0.23

CCOc1cc(C=O)ccc1O [ethyl vanillin]
odorant receptor activation [1]: 1.03 and 1.23
odorant receptor activation [2]: 1.26
odorant receptor activation [3]: 2.33 and 1.09
odorant receptor activation [4]: 1.57 and 1.02
odorant receptor activation [5]: 1.24 and 1.94 and 1.13
odorant receptor activation [6]: 1.19 and 0.89
odorant receptor activation [7]: 1.3 and 1.17
odorant receptor activation [8]: 1.17 and 1.11
odorant receptor activation [9]: 1.11 and 1.16
odorant receptor activation [10]: 0.886 and 1.65

CS [methanethiol]
odorant receptor activation [1]: 0.867
odorant receptor activation [2]: 1.42
odorant receptor activation [3]: 0.894
odorant receptor activation [4]: 1.2
odorant receptor activation [5]: 0.74
odorant receptor activation [6]: 1
odorant receptor activation [7]: 1.21
odorant receptor activation [8]: 0.88
odorant receptor activation [9]: 1.08
odorant receptor activation [10]: 0.68
